Reference: PubChem BioAssay AID1224830 (NIAID, 2016)

Aim: 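Regulators of TLR4 signalling towards TNF-alpha in macrophage-like cells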 (primary screen)
Cells: human THP-1 monocytic leukaemia cells, TNF dual-luciferase reporter clone, PMA-differentiated to macrophage-like cells
Knock-down reagent: siRNA pool against human genes, 50 nM
Timing: LPS for 4 h, given about 3 days after siRNA transfection
Treatment: bacterial LPS (TLR4 ligand), 10 ng/ml
Read-out: 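TNF firefly reporter luminescence divided by renilla, normalised to the plate median, then turned into a robust z-score for each replicate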
Reading the numbers: TNF reporter robust z-score: higher = stronger TNF reporter response to LPS
Hit rule: 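Each well counts as active if its z-score is over 2.8 or under -1.5; controls are left without a call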
Shown is a random part of about 18,000 reagents. Over the whole deposit, about 2,900 (16%) got an active call. 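Calls are made per well; low scores hint the gene aids the LPS response, high scores that it dampens it.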 A number with no mark means an inactive call. Repeated entries: four replicate wells of each siRNA pool.

Knock-down of RCAN1 resulted in: TNF reporter robust z-score 0.47. RCAN1 gave TNF reporter robust z-score -0.32. For RCAN1 the deposit lists TNF reporter robust z-score -0.1. For RCAN1, the values are TNF reporter robust z-score -0.31. After knock-down of ENO2, the record shows TNF reporter robust z-score -0.25. For ENO2 the deposit lists TNF reporter robust z-score 0.61.

For ENO2, the entry reads TNF reporter robust z-score -0.01. For ENO2 the deposit lists TNF reporter robust z-score 1.18. Against LRRIQ4, the entry reads TNF reporter robust z-score -0.5. After knock-down of LRRIQ4 the results were TNF reporter robust z-score -0.99. With knock-down of LRRIQ4, the record shows TNF reporter robust z-score -1.02. After knock-down of LRRIQ4, the record shows TNF reporter robust z-score -1.06.

Ordered by “TNF reporter robust z-score” (descending): 2 of the entries above
ENO2 — TNF reporter robust z-score = 1.18
ENO2 — TNF reporter robust z-score = -0.01

Continued:
Against MAMSTR, the values are TNF reporter robust z-score 0.34. Silencing of MAMSTR resulted in: TNF reporter robust z-score 0.19. MAMSTR gave TNF reporter robust z-score -0.29. With knock-down of MAMSTR, the screen gave TNF reporter robust z-score -0.17. MYH1 gave TNF reporter robust z-score 1.27. MYH1 gave TNF reporter robust z-score 3.82 (active).

MYH1 gave TNF reporter robust z-score 2.97 (active). Against MYH1, the entry reads TNF reporter robust z-score 1.21.
